The list does not hold the whole screen: it is rich in T/C values a quarter to a half above the control, in often repeated tests (any T/C) and in doses without a T/C. Other doses and runs of a compound stand elsewhere. T/C is the treated group as % of the vehicle group. Some doses have a count of surviving animals in place of a T/C: the source holds a T/C of zero for them, seemingly a mark for toxic or unscored doses. Some doses without a T/C left all or most animals alive at the check, yet need not have been tolerated: the source hardly ever lists a survival T/C far under the control, and the zero likely stands for such cases as well. Survivors were counted at the toxicity check, usually on the fifth day, unless a day is given; later deaths do not show. Schedules are NCI's codes, taken here to give the interval after Q, in days (D) or hours (H), and the number of doses after X. Some entries hold several experiments; the results are listed from low to high. Some schedule codes hold Z or #, which are not explained here. Where survival is the endpoint, this PubChem deposit counts one and a half times the control or more as active, and values a quarter to a half above the control carry no call in these data; other NCI protocols may use other cut-offs. Some T/C values are followed by the survivors on the day toxicity was checked, most often the fifth; without a count, all were alive then. Marks such as (2×) stand for listed records that agree.
System: C57BL/6 mice, intracerebral ependymoblastoma, median survival T/C
Test: NCI In Vivo Anticancer Drug Screen. Data for tumor model Ependymoblastoma (intracerebral) in C57BL/6 mice
Details: T/C endpoint: median survival time, higher T/C = longer survival
Protocol: The antitumor activity of compounds was measured in mice bearing transplantable tumors. Survival or tumor size were measured and the results are expressed as the measurement made in the treated group (T) divided by the measurement made in the vehicle treated control group (C). The tumor model used in this assay is Ependymoblastoma (intracerebral) in C57BL/6 mice

[1] = dose: 16.0 mg/kg/injection, schedule: Q01DX005 (ip), vehicle: saline

For `OC(C1CO1)C(O)C1CO1` (configuration not stated), the T/C (dose: 0.5 mg/kg/injection, schedule: Q01DX005 (ip), vehicle: saline, evaluated on day 50) was 116 % of control, the T/C (dose: 0.5 mg/kg/injection, schedule: Q01DX005 (ip), vehicle: saline, evaluated on day 60) was 105, 106, 111, 113, 120 % of control and the T/C (dose: 0.5 mg/kg/injection, schedule: Q01DX005 (ip), vehicle: saline, evaluated on day 90) was 102 % of control [4 of 10 alive]. The survivor count (dose: 0.5 mg/kg/injection, schedule: Q01DX005 (ip), vehicle: saline) was 10 of 10, the T/C (dose: 1.0 mg/kg/injection, schedule: Q01DX005 (ip), vehicle: saline, evaluated on day 30) was 103 and 106 % of control and the T/C (dose: 1.0 mg/kg/injection, schedule: Q01DX005 (ip), vehicle: saline, evaluated on day 50) was 127 % of control [7 of 8 alive]. The T/C (dose: 1.0 mg/kg/injection, schedule: Q01DX005 (ip), vehicle: saline, evaluated on day 60) was 103, 112, 116, 118, 121, 128, 301 % of control, the T/C (dose: 1.0 mg/kg/injection, schedule: Q01DX005 (ip), vehicle: saline, evaluated on day 90) was 112 % of control [7 of 10 alive] and the T/C (dose: 1.0 mg/kg/injection, schedule: Q03HX008 (ip), vehicle: saline) was 133 % of control. The T/C (dose: 2.0 mg/kg/injection, schedule: Q01DX005 (ip), vehicle: saline, evaluated on day 30) was 127 and 128 % of control, the T/C (dose: 2.0 mg/kg/injection, schedule: Q01DX005 (ip), vehicle: saline, evaluated on day 50) was 106 % of control and the T/C (dose: 2.0 mg/kg/injection, schedule: Q01DX005 (ip), vehicle: saline, evaluated on day 60) was 112 (2×), 120, 121, 132, 139, 301 % of control. The T/C (dose: 2.0 mg/kg/injection, schedule: Q01DX005 (ip), vehicle: saline, evaluated on day 90) was 112 % of control [6 of 10 alive], the T/C (dose: 2.0 mg/kg/injection, schedule: Q03HX008 (ip), vehicle: saline) was 133 % of control [9 of 10 alive] and the T/C (dose: 3.0 mg/kg/injection, schedule: Q01DX005 (ip), vehicle: saline) was 129 % of control. For the same molecule, the T/C (dose: 4.0 mg/kg/injection, schedule: Q01DX001 (ip), vehicle: saline) was 127 % of control [8 of 10 alive], the survivor count (dose: 4.0 mg/kg/injection, schedule: Q01DX005 (ip), vehicle: clinical formulation) was 10 of 10 and the T/C (dose: 4.0 mg/kg/injection, schedule: Q01DX005 (ip), vehicle: saline, evaluated on day 60) was 128, 165, 166 % of control. The T/C (dose: 4.0 mg/kg/injection, schedule: Q01DX005 (ip), vehicle: saline, evaluated on day 90) was 115 % of control [7 of 10 alive], the survivor count (dose: 4.0 mg/kg/injection, schedule: Q01DX005 (ip), vehicle: saline) was 7 of 8, 9 of 10, 10 of 10, 9 of 9 and the survivor count (dose: 4.0 mg/kg/injection, schedule: Q01DX005 (oral), vehicle: clinical formulation) was 8 of 10. The T/C (dose: 4.0 mg/kg/injection, schedule: Q01DX005 (oral), vehicle: saline) was 132 % of control, the T/C (dose: 4.0 mg/kg/injection, schedule: Q## X006 (ip), vehicle: clinical formulation) was 141 % of control and the survivor count (dose: 5.0 mg/kg/injection, schedule: Q01DX005 (ip), vehicle: saline) was 4 of 7. For the same molecule, the T/C (dose: 8.0 mg/kg/injection, schedule: Q01DX001 (ip), vehicle: clinical formulation) was 136 % of control, the survivor count (dose: 8.0 mg/kg/injection, schedule: Q01DX005 (ip), vehicle: clinical formulation) was 8 of 10 and the T/C (dose: 8.0 mg/kg/injection, schedule: Q01DX005 (ip), vehicle: saline, evaluated on day 60) was 157 % of control. For the same molecule, the T/C (dose: 8.0 mg/kg/injection, schedule: Q01DX005 (ip), vehicle: saline, evaluated on day 90) was 97 % of control [3 of 10 alive], the survivor count (dose: 8.0 mg/kg/injection, schedule: Q01DX005 (ip), vehicle: saline) was 4 of 10, 6 of 10, 9 of 10, 8 of 8 and the survivor count (dose: 8.0 mg/kg/injection, schedule: Q01DX005 (oral), vehicle: clinical formulation) was 10 of 10. For the same molecule, the survivor count (dose: 8.0 mg/kg/injection, schedule: Q01DX005 (oral), vehicle: saline) was 10 of 10, the survivor count (dose: 8.0 mg/kg/injection, schedule: Q## X006 (ip), vehicle: clinical formulation) was 6 of 10 and the survivor count (dose: 10.0 mg/kg/injection, schedule: Q01DX005 (oral), vehicle: saline) was 7 of 7. The survivor count (dose: 16.0 mg/kg/injection, schedule: Q01DX001 (ip), vehicle: clinical formulation) was 3 of 10 and 5 of 10, the survivor count (dose: 16.0 mg/kg/injection, schedule: Q01DX001 (oral), vehicle: clinical formulation) was 3 of 10 and the T/C [1] was 98 % of control [3 of 10 alive]. The survivor count [1] was 4 of 10, 4 of 8, 6 of 10, 8 of 10, 10 of 10, the survivor count (dose: 16.0 mg/kg/injection, schedule: Q01DX005 (oral), vehicle: clinical formulation) was 7 of 10 and the survivor count (dose: 16.0 mg/kg/injection, schedule: Q01DX005 (oral), vehicle: saline) was 10 of 10. The survivor count (dose: 32.0 mg/kg/injection, schedule: Q01DX001 (ip), vehicle: clinical formulation) was 3 of 10, the survivor count (dose: 32.0 mg/kg/injection, schedule: Q01DX001 (oral), vehicle: clinical formulation) was 5 of 10 and the survivor count (dose: 32.0 mg/kg/injection, schedule: Q01DX005 (oral), vehicle: clinical formulation) was 5 of 10. The survivor count (dose: 64.0 mg/kg/injection, schedule: Q01DX001 (oral), vehicle: clinical formulation) was 6 of 10 and the survivor count (dose: 128.0 mg/kg/injection, schedule: Q01DX001 (oral), vehicle: clinical formulation) was 3 of 10 and 4 of 10.
With `S=c1nc[nH]c2nc[nH]c12` the survivor count (dose: 40.0 mg/kg/injection, schedule: Q01DX005 (ip), vehicle: Klucel (hydroxypropylcellulose) (HPC)) was 10 of 10, the survivor count (dose: 80.0 mg/kg/injection, schedule: Q01DX005 (ip), vehicle: Klucel (hydroxypropylcellulose) (HPC)) was 10 of 10 and the survivor count (dose: 160.0 mg/kg/injection, schedule: Q01DX005 (ip), vehicle: Klucel (hydroxypropylcellulose) (HPC)) was 9 of 10 and 10 of 10.
With `CCC(=O)O[C@H]1CC[C@H]2[C@@H]3CCC4=CC(=O)CC[C@]4(C)[C@H]3CC[C@]12C` the survivor count (dose: 128.0 mg/kg/injection, schedule: Q01DX005 (ip), vehicle: saline) was 10 of 10.
With `O=NN(CCCl)C(=O)NC1CCCCC1` the T/C (dose: 2.5 mg/kg/injection, schedule: Q01DX001 (ip), vehicle: Klucel (hydroxypropylcellulose) (HPC)) was 96, 107, 107 [7 of 10 alive], 113 % of control [6 of 10 alive], the T/C (dose: 5.0 mg/kg/injection, schedule: Q01DX001 (ip), vehicle: Klucel (hydroxypropylcellulose) (HPC)) was 102 [6 of 10 alive], 105 [8 of 10 alive], 113, 119 % of control and the T/C (dose: 10.0 mg/kg/injection, schedule: Q01DX001 (ip), vehicle: Klucel (hydroxypropylcellulose) (HPC)) was 105 [7 of 10 alive], 106 [8 of 10 alive], 122, 138 % of control. For the same molecule, the T/C (dose: 20.0 mg/kg/injection, schedule: Q01DX001 (ip), vehicle: Klucel (hydroxypropylcellulose) (HPC)) was 101 [6 of 10 alive], 124 [7 of 10 alive], 220, 300 % of control, the T/C (dose: 40.0 mg/kg/injection, schedule: Q01DX001 (ip), vehicle: Klucel (hydroxypropylcellulose) (HPC)) was 110 [9 of 10 alive], 169 [6 of 10 alive], 286, 301 % of control and the survivor count (dose: 64.0 mg/kg/injection, schedule: Q01DX005 (oral), vehicle: Klucel (hydroxypropylcellulose) (HPC)) was 10 of 10. For the same molecule, the T/C (dose: 128.0 mg/kg/injection, schedule: Q01DX001 (ip), vehicle: Klucel (hydroxypropylcellulose) (HPC)) was 130 % of control and the survivor count (dose: 128.0 mg/kg/injection, schedule: Q01DX005 (oral), vehicle: Klucel (hydroxypropylcellulose) (HPC)) was 10 of 10.
In the case of `COc1cc(C[C@H]2c3cc(OC)c(OC)cc3CCN2C)c(Oc2cc3c(cc2OC)-c2c(OC)c(OC)cc4c2[C@H](C3)N(C)CC4)cc1OC`, the survivor count (dose: 200.0 mg/kg/injection, schedule: Q01DX005 (ip), vehicle: saline with Tween-80) is reported as 9 of 10.
